Consider three sequences from patent US6555652B1 (Kyogo Itoh, priority 1997, dated 2003).

Holding throughout (details): whole synthesis, scale 100 mg resin
The nature of data set [1]: general procedure: Fmoc solid-phase peptide synthesis; Fmoc-Leu-Alko Resin (0.54 mmol/g).
The nature of data set [2]: general procedure: Fmoc solid-phase peptide synthesis; Fmoc-Ile-Alko Resin (0.62 mmol/g).
A short description of data set [3]: general procedure: Fmoc solid-phase peptide synthesis; Fmoc-Trp(Boc)-Alko Resin (0.65 mmol/g).

No end group written: not given here.

EYRGFTQDL registered an isolated mass in data set [1] of 52.5 mg.

Sequence EYRGFTQDI returned an isolated mass in data set [2] of 47.8 mg.

In data set [3], EYRGFTQDW showed an isolated mass of 14.0 mg.
